The target of experiment [1] is T1, transducin (beta)-like 1 X-linked (mouse (endogenous in TSCs)) (UniProt Q9QXE7).
T1 sequence: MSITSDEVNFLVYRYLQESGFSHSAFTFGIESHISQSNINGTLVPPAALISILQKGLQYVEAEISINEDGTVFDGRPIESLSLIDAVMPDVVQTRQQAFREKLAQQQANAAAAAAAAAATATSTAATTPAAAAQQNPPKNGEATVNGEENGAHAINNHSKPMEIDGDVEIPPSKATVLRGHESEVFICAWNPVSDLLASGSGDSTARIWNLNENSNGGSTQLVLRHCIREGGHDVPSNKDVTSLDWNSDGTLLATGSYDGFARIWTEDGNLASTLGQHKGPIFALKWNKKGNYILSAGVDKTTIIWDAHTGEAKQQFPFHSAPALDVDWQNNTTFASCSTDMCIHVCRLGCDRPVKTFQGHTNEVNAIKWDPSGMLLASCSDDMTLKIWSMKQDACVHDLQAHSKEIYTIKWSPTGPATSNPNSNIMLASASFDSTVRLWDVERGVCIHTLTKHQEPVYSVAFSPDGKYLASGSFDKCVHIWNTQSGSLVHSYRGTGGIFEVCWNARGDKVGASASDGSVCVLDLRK
Put plainly: co-IP; self-renewing (SR) TSCs; Supplementary Fig. 7b; the bait is not given, the co-IP methods list anti-Tbl1x for precipitation and anti-Sox2 for the blot.

By UniProt entry, the sequences of proteins in these tests, tags left out.
UniProt P48432: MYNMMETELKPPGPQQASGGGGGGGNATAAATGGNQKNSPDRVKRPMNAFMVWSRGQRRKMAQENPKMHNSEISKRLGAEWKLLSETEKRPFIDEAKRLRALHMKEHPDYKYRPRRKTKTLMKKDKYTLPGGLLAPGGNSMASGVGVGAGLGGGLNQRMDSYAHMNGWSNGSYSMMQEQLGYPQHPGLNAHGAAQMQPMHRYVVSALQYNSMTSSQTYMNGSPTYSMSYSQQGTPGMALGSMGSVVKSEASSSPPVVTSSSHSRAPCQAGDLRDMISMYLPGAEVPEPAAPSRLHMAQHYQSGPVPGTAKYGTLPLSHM

Experiment [2] addresses T1, transducin (beta)-like 1 X-linked (mouse (endogenous in TSCs)). Kind of experiment: co-IP; endogenous Tbl1x precipitated with anti-Tbl1x and protein G Dynabeads from TSC lysate in Hunt buffer (20 mM Tris-HCl pH 8, 100 mM NaCl, 1 mM EDTA, 0.5% NP-40), overnight at 4 C; Western blot; IgG as negative control. On the technique in general: A western blot detects proteins with antibodies after separation by electrophoresis.

Two molecules from paper PMC10193302 can be followed below.

These are yes or no findings as the source states them, for the method shown. Binding seen in cells or lysates may run through a third protein. Some entries that bind do so weakly or less than the wild type. For some assays here: Sequences can lack the tags named with a protein.

Regarding Sox2 (from UniProt P48432 1-319), in experiment [1], the binding result was “no binding”.

B1: Erf tagged with V5 at the endogenous locus (protein, UniProt P70459 1-551)
chain: MKTPADTGFAFPDWAYKPESSPGSRQIQLWHFILELLRKEEYQGVIAWQGDYGEFVIKDPDEVARLWGVRKCKPQMNYDKLSRALRYYYNKRILHKTKGKRFTYKFNFNKLVLVNYPFIDMGLAGGAVPQSAPPVPSGGSHFRFPPSTPSEVLSPTEDPRSPPACSSSSSSLFSAVVARRLGRGSVSDCSDGTSELEEPLGEDPRARPPGPPELGAFRGPPLARLPHDPGVFRVYPRPRGGPEPLSPFPVSPLAGPGSLLPPQLSPALPMTPTHLAYTPSPTLSPMYPSGGGGPSGSGGGSHFSFSPEDMKRYLQAHTQSVYNYHLSPRAFLHYPGLVVPQPQRPDKCPLPPMAPETPPVPSSASSSSSSSSSPFKFKLQPPPLGRRQRAAGEKAPGGTDKSSGGSGSGGLAEGAGAVAPPPPPPQIKVEPISEGESEEVEVTDISDEDEEDGEVFKTPRAPPAPPKPEPGEAPGVAQCMPLKLRFKRRWSEDCRLEGGGCLSGGPEDEGEDKKVRGDVGPGESGGPLTPRRVSSDLQHATAQLSLEHRDS
As to B1, the binding result in experiment [2] was “binds”.
